Results on 3 molecules are retold here after paper PMC12147964.

Chains of the proteins cited; added tags and fusions are not shown.
UniProt P49023: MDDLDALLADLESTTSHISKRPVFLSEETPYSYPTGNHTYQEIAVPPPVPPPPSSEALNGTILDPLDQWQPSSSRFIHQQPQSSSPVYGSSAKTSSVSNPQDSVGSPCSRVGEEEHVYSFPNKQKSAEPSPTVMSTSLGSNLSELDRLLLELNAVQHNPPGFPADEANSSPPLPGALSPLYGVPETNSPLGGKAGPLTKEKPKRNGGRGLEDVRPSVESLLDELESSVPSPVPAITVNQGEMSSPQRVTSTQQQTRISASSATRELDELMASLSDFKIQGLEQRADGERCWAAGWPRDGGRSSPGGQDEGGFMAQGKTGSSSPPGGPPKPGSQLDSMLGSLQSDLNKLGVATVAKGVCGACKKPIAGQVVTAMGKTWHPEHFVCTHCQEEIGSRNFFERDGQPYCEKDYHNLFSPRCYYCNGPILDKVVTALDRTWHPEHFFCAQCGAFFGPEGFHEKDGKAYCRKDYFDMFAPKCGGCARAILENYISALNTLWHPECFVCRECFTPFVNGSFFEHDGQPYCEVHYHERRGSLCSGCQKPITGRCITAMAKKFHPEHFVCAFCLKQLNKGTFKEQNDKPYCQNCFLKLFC

Results are given in words; binding and its absence hold for the method and conditions named. Binding seen in cells or lysates may run through a third protein. Some entries that bind do so weakly or less than the wild type. For part of these data: Where a sequence is shown, tags or fusion partners need not be part of it.

Test [1] deals with T1, GIT ArfGAP2 (human (endogenous in immortalized human podocytes CIHP-1)) (UniProt Q14161).
T1 sequence: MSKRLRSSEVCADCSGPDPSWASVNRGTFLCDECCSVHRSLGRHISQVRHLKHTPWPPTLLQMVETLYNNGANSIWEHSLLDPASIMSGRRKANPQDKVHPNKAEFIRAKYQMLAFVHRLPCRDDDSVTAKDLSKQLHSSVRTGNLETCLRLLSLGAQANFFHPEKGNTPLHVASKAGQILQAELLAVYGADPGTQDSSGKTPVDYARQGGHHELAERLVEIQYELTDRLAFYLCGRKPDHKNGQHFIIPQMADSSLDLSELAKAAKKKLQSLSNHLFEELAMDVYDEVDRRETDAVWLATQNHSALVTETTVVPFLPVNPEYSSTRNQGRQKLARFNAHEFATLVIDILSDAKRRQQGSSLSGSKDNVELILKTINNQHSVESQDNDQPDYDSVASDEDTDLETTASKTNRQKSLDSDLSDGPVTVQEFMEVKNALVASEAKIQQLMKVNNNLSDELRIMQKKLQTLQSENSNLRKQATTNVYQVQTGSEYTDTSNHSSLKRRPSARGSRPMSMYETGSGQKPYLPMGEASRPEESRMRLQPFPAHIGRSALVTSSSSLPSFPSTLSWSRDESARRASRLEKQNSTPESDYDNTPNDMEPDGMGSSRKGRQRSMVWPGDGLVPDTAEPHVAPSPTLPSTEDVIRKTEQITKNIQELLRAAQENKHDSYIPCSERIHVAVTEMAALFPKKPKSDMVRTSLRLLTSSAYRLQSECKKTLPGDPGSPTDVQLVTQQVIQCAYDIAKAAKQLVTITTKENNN
Kind of test: co-IP; lysates of cultured human podocytes immunoprecipitated with anti-GIT2 antibody, immunoblot for paxillin; rabbit IgG as negative control; also from cells treated with 12.5 µM blebbistatin, NSC23766 or vehicle for 16 hours (blebbistatin markedly reduced, NSC23766 did not affect the co-precipitation).

Test [2] deals with T2, pEBG-tagged PTP1B-D181A (substrate-trapping mutant) (UniProt P18031).
T2 sequence: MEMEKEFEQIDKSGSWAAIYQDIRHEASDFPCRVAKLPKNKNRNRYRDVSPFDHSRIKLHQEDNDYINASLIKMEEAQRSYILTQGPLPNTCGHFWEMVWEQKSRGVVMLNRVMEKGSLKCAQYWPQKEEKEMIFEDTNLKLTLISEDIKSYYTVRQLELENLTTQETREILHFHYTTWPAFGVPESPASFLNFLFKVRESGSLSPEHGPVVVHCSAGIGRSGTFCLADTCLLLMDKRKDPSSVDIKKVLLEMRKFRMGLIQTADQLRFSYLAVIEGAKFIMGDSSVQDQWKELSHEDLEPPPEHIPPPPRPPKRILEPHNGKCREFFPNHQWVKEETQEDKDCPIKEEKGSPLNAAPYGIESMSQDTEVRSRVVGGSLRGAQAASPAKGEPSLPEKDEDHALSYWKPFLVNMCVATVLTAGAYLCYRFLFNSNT
The experiment in a line: pull-down; substrate-trapping assay: HEK293 cells transiently transfected with an EGF receptor and pEBG-tagged phosphatase, 100 ng/ml EGF overnight, lysates pulled down by GST, immunoblot for pY410 p130Cas. On the technique in general: A western blot detects proteins with antibodies after separation by electrophoresis.

The target of test [3] is T3, pEBG-tagged PTP-PEST-C231S (substrate-trapping mutant), Q05209.
T3 chain: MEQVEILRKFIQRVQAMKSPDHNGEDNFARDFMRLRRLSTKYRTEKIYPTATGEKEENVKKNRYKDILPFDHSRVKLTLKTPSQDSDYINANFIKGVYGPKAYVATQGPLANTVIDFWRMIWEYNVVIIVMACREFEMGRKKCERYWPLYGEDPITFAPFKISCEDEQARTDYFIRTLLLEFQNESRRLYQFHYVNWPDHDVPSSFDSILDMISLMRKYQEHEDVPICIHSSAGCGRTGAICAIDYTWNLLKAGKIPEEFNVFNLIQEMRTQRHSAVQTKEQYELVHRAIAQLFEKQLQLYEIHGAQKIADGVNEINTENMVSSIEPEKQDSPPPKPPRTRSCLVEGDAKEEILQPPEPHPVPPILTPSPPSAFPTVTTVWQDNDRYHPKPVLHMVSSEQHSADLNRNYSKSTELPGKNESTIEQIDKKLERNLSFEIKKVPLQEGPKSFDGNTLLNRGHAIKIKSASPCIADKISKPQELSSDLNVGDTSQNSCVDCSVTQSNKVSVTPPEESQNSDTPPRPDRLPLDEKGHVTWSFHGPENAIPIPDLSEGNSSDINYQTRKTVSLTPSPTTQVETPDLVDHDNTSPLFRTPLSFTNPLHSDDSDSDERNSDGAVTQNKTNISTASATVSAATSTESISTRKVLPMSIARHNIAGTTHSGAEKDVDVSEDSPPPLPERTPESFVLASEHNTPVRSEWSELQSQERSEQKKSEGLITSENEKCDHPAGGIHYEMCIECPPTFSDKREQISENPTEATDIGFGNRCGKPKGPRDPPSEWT
The description is as above. Conditions: remark: other sources report otherwise.

Regarding paxillin (from UniProt P49023 1-591), the binding result in test [1] is listed as “binds”.

B1: pY410-p130Cas (p130 Crk-associated substrate phosphorylated at tyrosine 410) (protein, UniProt P56945 1-870)
chain: MNHLNVLAKALYDNVAESPDELSFRKGDIMTVLEQDTQGLDGWWLCSLHGRQGIVPGNRLKILVGMYDKKPAGPGPGPPATPAQPQPGLHAPAPPASQYTPMLPNTYQPQPDSVYLVPTPSKAQQGLYQVPGPSPQFQSPPAKQTSTFSKQTPHHPFPSPATDLYQVPPGPGGPAQDIYQVPPSAGMGHDIYQVPPSMDTRSWEGTKPPAKVVVPTRVGQGYVYEAAQPEQDEYDIPRHLLAPGPQDIYDVPPVRGLLPSQYGQEVYDTPPMAVKGPNGRDPLLEVYDVPPSVEKGLPPSNHHAVYDVPPSVSKDVPDGPLLREETYDVPPAFAKAKPFDPARTPLVLAAPPPDSPPAEDVYDVPPPAPDLYDVPPGLRRPGPGTLYDVPRERVLPPEVADGGVVDSGVYAVPPPAEREAPAEGKRLSASSTGSTRSSQSASSLEVAGPGREPLELEVAVEALARLQQGVSATVAHLLDLAGSAGATGSWRSPSEPQEPLVQDLQAAVAAVQSAVHELLEFARSAVGNAAHTSDRALHAKLSRQLQKMEDVHQTLVAHGQALDAGRGGSGATLEDLDRLVACSRAVPEDAKQLASFLHGNASLLFRRTKATAPGPEGGGTLHPNPTDKTSSIQSRPLPSPPKFTSQDSPDGQYENSEGGWMEDYDYVHLQGKEEFEKTQKELLEKGSITRQGKSQLELQQLKQFERLEQEVSRPIDHDLANWTPAQPLAPGRTGGLGPSDRQLLLFYLEQCEANLTTLTNAVDAFFTAVATNQPPKIFVAHSKFVILSAHKLVFIGDTLSRQAKAADVRSQVTHYSNLLCDLLRGIVATTKAAALQYPSPSAAQDMVERVKELGHSTQQFRRVLGQLAAA
modifications: phosphotyrosine at 410
B1: the binding entry in test [2] was “binds”.

B2: pY410-p130Cas (p130 Crk-associated substrate phosphorylated at tyrosine 410), P56945 1-870 (protein)
chain: B1 chain
modifications: here or on the partner: phosphotyrosine at 410
Turning to B2, the binding entry in test [3] was “no binding”.
